## Results of single-concentration screens

Amino acid sequences for entries named in this document (tags omitted).
UniProt P9WPC5, whole entry: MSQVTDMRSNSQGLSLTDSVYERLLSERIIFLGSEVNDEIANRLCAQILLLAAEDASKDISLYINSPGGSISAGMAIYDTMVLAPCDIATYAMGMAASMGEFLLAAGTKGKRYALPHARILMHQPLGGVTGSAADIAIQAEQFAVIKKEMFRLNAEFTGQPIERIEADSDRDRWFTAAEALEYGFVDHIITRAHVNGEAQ
UniProt P9WPC3, whole entry partner: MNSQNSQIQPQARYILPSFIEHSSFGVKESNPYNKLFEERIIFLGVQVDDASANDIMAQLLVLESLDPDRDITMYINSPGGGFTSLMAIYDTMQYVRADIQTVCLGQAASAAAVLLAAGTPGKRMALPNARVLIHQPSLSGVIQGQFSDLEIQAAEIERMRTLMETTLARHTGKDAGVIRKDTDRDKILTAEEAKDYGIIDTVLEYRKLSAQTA

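Protease assay of ClpP1P2, read by the AMC dye that it sets free. Target: ClpP1P2, Mycobacterium tuberculosis (UniProt P9WPC5 and UniProt P9WPC3). Concentration: 50 µM. Direction is inferred from only a few compounds that gave an IC50; most scored high, so higher reads as stronger inhibition. Most other retested compounds had strongly negative values. Size under these conditions: about 69,000 compounds, about 10 of them at 50% or above in at least one test.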

The filed quantity is “Percent Effect” (%).
The controls that fix the scale are not given in the record; negative values are as filed.
The compounds are a random part of those screened.

compound	effect
Cc1cc(NC2CCc3ncnn3C2)n2nc(C(F)(F)F)nc2n1 (centres unmarked)	-11.21
Cc1ccc2c(n1)N(CCN(C)C)CCN(C(=O)c1cccs1)C2	12.14
CC(C)Oc1ncccc1CNC(=O)c1cc(C2CC2)on1	-16.94
O[C@H]1CCN(CC2CC2)[C@H]1Cc1ccncc1	2.89
Cc1nnc(SCCC(=O)N(C)Cc2ccc(Cl)s2)[nH]1	-0.1498
NC(=O)C(CNC(=O)CCc1ccsc1)Cc1ccc(F)cc1 (centres unmarked)	-1.704
Fc1ccc(-c2cnc(C3CCNCC3)cn2)cc1	-19.65
COc1ccc(Cc2nc3c([nH]2)CC(C)(C)CNC3=O)c(OC)c1	-10.36
O=C(CCc1nc(C2CC2)no1)c1ccccc1	-7.337
CC(=O)Nc1ccc(SCC(O)COCc2ccco2)cc1 (centres unmarked)	9.71
CCN1CCN(Cc2c(-c3ccco3)[nH]c3ncccc23)CC1	-10.63
O=C(CNc1ccc(OCC2CCOCC2)cc1)NCc1ccco1	-13.07
CC1N(CC2CC2)C(=O)COC12CCN(C(=O)c1cccs1)CC2 (centres unmarked)	9.367
COc1cccc2c1OCC(C(=O)NCc1c(C)noc1C)C2 (centres unmarked)	-28.28
Cc1cnc2n1CCN(C)C21CCN(CC2CC2)CC1	0.8579
CC(C)(O)CN1CCN(C(=O)c2sccc2C#N)CC1	1.653
CC(C)Oc1cc(N2CCC(N3CCC(O)CC3)CC2)nc(N)n1	-8.396
CCCS(=O)(=O)N1CCCC(c2nc(-c3ccccc3)c[nH]2)C1 (centres unmarked)	11.31
COC1COC2(CCN(Cc3cccc(C#N)c3)CC2)C1 (centres unmarked)	-2.105
CCc1nc(C)c(C(=O)N2CCCC(c3noc(C)n3)C2)s1 (centres unmarked)	-7.197
Cc1cc(NC(=O)NCCO)nn1-c1ccc(Cl)cc1Cl	-7.058
CN(C)c1ncc(I)c(C2CCCCN2C)n1 (centres unmarked)	13.53
Cc1cc(C)n(C2CCCN(C(=O)Cn3ccc(=O)n(C)c3=O)C2)n1 (centres unmarked)	5.016
CC(C)CC(C)NC1CCN(c2cccc(-c3cscn3)c2)CC1 (centres unmarked)	-3.683
Cc1ccc(C)c(Oc2ccc(CNC(=O)C3CCS(=O)(=O)C3)cn2)c1 (centres unmarked)	-3.119
Cc1nc(CN2CCC(C(=O)O)(n3ccc(-c4ccco4)n3)CC2)co1	-3.593
N#Cc1ccc(N2CCC(NS(=O)(=O)c3cccs3)CC2)c(F)c1	5.466
CCOc1cc(/C=C/c2ncc(C(=O)O)s2)cc(Cl)c1OC	10
Cn1cc(CC(=O)N2CCCC(n3cncn3)C2)cn1 (centres unmarked)	-16.19
CCOCC1CN(C(=O)c2ccco2)Cc2cnn(C)c21 (centres unmarked)	-13.65
COCCN(C)C(C(=O)O)c1cc(Cl)ccc1OC (centres unmarked)	-1.199
Cc1cc(CN2CCOC(C)(C(=O)N3CCOCC3)C2)no1 (centres unmarked)	-5.274
CSc1ccc2cc(CN(C)CCO)c(=O)[nH]c2c1	-21.94
Cc1ccc(Br)cc1NC(=O)NC1CCC2(C1)OCCO2 (centres unmarked)	-5.423
CCC(=O)NCc1cc(Br)ccc1OC(F)F	-5.894
CCCC1CN(CCOc2ccccc2)C(=O)c2cccnc2O1 (centres unmarked)	15.17
CCn1ccnc1CN1CCCC1Cn1cc(C)cn1 (centres unmarked)	-23.68
Cc1cc(C)c2c(NCc3nncn3C3CCCCC3)ncnc2n1	-12.2
Cc1n[nH]c(=O)c2c(NC(=O)CN3CCC(O)CC3)oc(C)c12	31.7
Cc1csc(N2CCCN(C(=O)C3(C#N)CCCCC3)CC2)n1	5.48
Cc1noc(C)c1-c1cccc(CC2CCN(C(=O)c3cc[nH]n3)C2)n1 (centres unmarked)	11.56
CCS(=O)(=O)Nc1ccn(Cc2c(F)cccc2Cl)n1	-28.48
Cc1ccc(OCCC(=O)N2CCOCC2c2ncon2)cc1C (centres unmarked)	-8.41
O=C1CCCC2=C1C(c1ccccc1F)Nc1nonc1N2 (centres unmarked)	-9.345
Cc1ccc([C@@H]2CN(C(=O)c3ccsc3)C[C@H]2NC(=O)C2CC2)cc1	-3.147
CC(C)CCc1noc(CN2CCCC(CNS(N)(=O)=O)C2)n1 (centres unmarked)	-14.99
CN1CCN(Cc2cn3c(n2)CN(C(=O)c2cccn2C)CC3)CC1	1.785
CC(C)NC(=O)CNC(=O)c1csc(Cc2ccccc2F)n1	-10.83
CCCS(=O)(=O)N1CC[C@@H]2[C@@H]1CC(=O)N2Cc1csc(C)n1	10.28
COCc1ncc(-c2nccn2CCS(C)(=O)=O)cn1	-10.03
CN(C)Cc1ccnc(C2CCCN2Cc2cc3ccccc3s2)n1 (centres unmarked)	-2.666
C=C(C)COc1cccc(CNCCc2c[nH]cn2)c1	-1.359
Cn1ccnc1CN1CCOC[C@H]1c1nc(C(C)(C)C)co1	-4.719
CN(Cc1ccccc1)CC1CC2(CO1)CN(Cc1nccs1)C2 (centres unmarked)	-0.2826
Cc1ccc(C(NC(=O)CC2CCN(C(C)C)CC2)C(=O)O)cc1 (centres unmarked)	-3.263
CCCN(CC)C(=O)c1nc2c(n1C)CCN(Cc1ccccc1)C2	5.66
Cc1ccncc1NC(=O)C1CSc2ncc(C)c(=O)n2C1 (centres unmarked)	-8.631
Cc1nn(C)c2cn(C(C)C(=O)NCc3ccccn3)nc12 (centres unmarked)	-7.358
CN1CCCN(S(=O)(=O)c2cn(C)cn2)c2cc(F)ccc21	0.5683
CC(C)NC(=O)[C@H]1C[C@@H]2[C@@H](C1)OCCN2Cc1cnn(C)c1	-9.46
CC1CCC(O)(CSc2nnnn2C2CC2)CC1 (centres unmarked)	-12.78
Cc1ccc(-c2nc(CNC(C)Cn3cccn3)cs2)o1 (centres unmarked)	-15.6
CCN(Cc1nc2c(cnn2C)c(=O)[nH]1)Cc1ccccc1C	-17.92
Cn1ccnc1CN1CCN(CCOc2ccccc2C#N)CC1	1.797
Cn1cc(Br)c(=O)c(NS(=O)(=O)c2cc(F)ccc2Cl)c1	-4.31
O=C(c1cnn2c1OCCC2)N1CCN(C(=O)C2CCCO2)CC1 (centres unmarked)	-15.6
O=C(NC[C@H]1C[C@@H]2CCN1C[C@@H]2CN1CCCCC1)c1ccco1	-12.32
CN(C)c1ccc(C(=O)N2CCC(c3n[nH]c(C4CC4)n3)CC2)cc1	5.297
COc1ccc2cc(C(=O)N3CCCCC3Cn3cccn3)[nH]c2c1 (centres unmarked)	-3.284
N#CCc1ccc(OCC(=O)NS(=O)(=O)c2cccs2)cc1	8.229
COCC(=O)N1CCCCC1c1nc(C)c2c(n1)N(C1CC1)C(=O)CC2 (centres unmarked)	-21.09
Cc1noc(C)c1C(=O)NCC(c1cccc(F)c1)N(C)C (centres unmarked)	-25.8
Cc1ccc(CN2CC[C@H]3CO[C@H](CN(C)C)[C@H]3C2)o1	0.6294
Cc1cc(CN2CCN(c3ccnc(-c4ccccc4)n3)CC2)no1	-9.654
O=C(O)[C@@H]1CN(Cc2c[nH]c(CC3CCCC3)n2)C[C@H]1c1ccncc1	7.491
CC(C)(C)C(=O)NCC(=O)NCCc1nc(C(F)(F)F)cs1	0.1591

Once more, the final 7:

N#CCc1ccc(OCC(=O)NS(=O)(=O)c2cccs2)cc1 gave 8.229%.
COCC(=O)N1CCCCC1c1nc(C)c2c(n1)N(C1CC1)C(=O)CC2 (centres unmarked) gave -21.09%.
Cc1noc(C)c1C(=O)NCC(c1cccc(F)c1)N(C)C (centres unmarked) gave -25.8%.
Cc1ccc(CN2CC[C@H]3CO[C@H](CN(C)C)[C@H]3C2)o1 gave 0.6294%.
Cc1cc(CN2CCN(c3ccnc(-c4ccccc4)n3)CC2)no1 gave -9.654%.
O=C(O)[C@@H]1CN(Cc2c[nH]c(CC3CCCC3)n2)C[C@H]1c1ccncc1 gave 7.491%.
CC(C)(C)C(=O)NCC(=O)NCCc1nc(C(F)(F)F)cs1 gave 0.1591%.

From ChEMBL document CHEMBL3988442, “University of Dundee, Small-Polar-MMV Screening Library” (2021).